Laboratory results published in patent US20170105979A1, “USE OF A TORASEMIDE-BASED VETERINARY COMPOSITION FOR LOW-DOSE ADMINISTERING” (VIRBAC, priority 2014, published 2017).

How the values were obtained:
[1] = plasma urea concentration (innocuousness); format: in vivo, female Beagle dogs; details: furosemide (5 mg/kg/day), D18 and D28; FIG. 7
[2] = plasma aldosterone concentration (innocuousness); format: in vivo, female Beagle dogs; details: furosemide (5 mg/kg/day), D18 and D28; FIG. 8
[3] = prolonged treatments of 14 days; torasemide 0.4 mg/kg/day; cited from earlier work

Question: Which plasma urea concentration [1] does the source give for NS(=O)(=O)c1cc(C(=O)O)c(NCc2ccco2)cc1Cl [furosemide] here?
Answer: increase

Question: And the plasma aldosterone concentration [2]?
Answer: increase

Question: What about the plasma creatinine concentrations [3] of the same compound?
Answer: increase in plasma creatinine concentrations
